This series deals with Prostate specific membrane antigen (PSMA), extracellular domain (UniProt Q04609). The experiment in a line: SELEX. To be noted: 9 of 10 clones in second SELEX; binding 60 min at 37 C; purified recombinant protein; label: Rhodamine or Quasar 570; single-stranded DNA.

Protein sequences, listed by entry. Tags and fused reporters are not part of them. Lines headed by an entry give the natural chain unless they say otherwise; changes in a name come on top.
UniProt Q04609: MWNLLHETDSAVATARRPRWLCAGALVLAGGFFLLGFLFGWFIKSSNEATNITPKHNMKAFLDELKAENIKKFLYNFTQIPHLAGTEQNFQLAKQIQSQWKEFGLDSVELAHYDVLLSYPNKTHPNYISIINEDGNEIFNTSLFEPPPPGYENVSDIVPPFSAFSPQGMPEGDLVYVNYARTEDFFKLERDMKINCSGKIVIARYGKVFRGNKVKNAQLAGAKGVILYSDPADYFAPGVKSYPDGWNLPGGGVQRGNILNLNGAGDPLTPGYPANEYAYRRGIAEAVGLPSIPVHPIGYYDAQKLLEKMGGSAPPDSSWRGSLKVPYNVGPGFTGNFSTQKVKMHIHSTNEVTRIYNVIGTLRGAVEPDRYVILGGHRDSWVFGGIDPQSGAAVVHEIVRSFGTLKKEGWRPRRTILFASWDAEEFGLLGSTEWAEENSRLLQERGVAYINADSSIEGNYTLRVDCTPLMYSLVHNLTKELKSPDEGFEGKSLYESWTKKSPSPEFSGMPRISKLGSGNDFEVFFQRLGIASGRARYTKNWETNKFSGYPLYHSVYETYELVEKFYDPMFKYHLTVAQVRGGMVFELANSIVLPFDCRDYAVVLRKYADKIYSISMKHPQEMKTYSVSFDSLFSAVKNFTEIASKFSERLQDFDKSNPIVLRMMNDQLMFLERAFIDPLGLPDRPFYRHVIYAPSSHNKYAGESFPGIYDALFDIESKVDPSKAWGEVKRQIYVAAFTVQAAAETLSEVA

For at least one entry, the source does not settle the construct or the ends of the probe.

The record followed here is US20160145619.

Take “GCGTTTTCGCTTTTGCGTTTTGGGTCATCTGCTTACGATAGCAATCGT [PSMA01]”: the selection result was “selected”.
